Measured values taken from patent publication US12226427B2, “Treatment for gene reactivation” (YISSUM RESEARCH DEVELOPMENT COMPANY OF THE HEBREW …, priority 2018, dated 2025).
For at least one compound, name, drawing or mass did not settle the structure.

Test system: FMR1
Experiment: RT-PCR analysis of FMR1 transcript levels in FXS-iPSCs
Assay type: cell-based, human
Conditions: FXS-iPSCs B #40, 96-hour treatment; 5-azaC 5 μM, 5-azadC 5 μM, SGI-110 2 μM, Zebularine 100 μM, non-nucleoside inhibitors 5-100 μM

## O=c1ncccn1[C@@H]1O[C@H](CO)[C@@H](O)[C@H]1O [Zebularine]
  FMR1 mRNA expression (RT-PCR): exception
